# Measured values as given in the supplement of paper PMC8728848.
# The other results are listed elsewhere or left out.
# B1: GS13971A-bth-447-22-447 (Bacteroides thetaiotaomicron) (protein)
# chain: EDVDNERSKGMFSASQSGFSTIEVYDLGPLNKIDLSIAKAGLEDTGGTVTFSVEQSLLDSLNNADGTSYQLLPPECYTIENATYSVSPGGDRRVTGGSLVYDPHKIYNLCGFDELKYVLPLRVSSTGTPMNSDRTATLYGFIVKEAIVRLASTGGDFVVEGGTTTSPMNLDTEISFENEWDLTTSFATKGADYVDNYNSANSTYYIPLPSDFYTLPDVTIAKGKTTGGSAISLLGETLPPGNYLLPVSLGGLSGQGDASINIDKETVANYFVIKQGGPINRDHWTVTANTEEKTGEVSAAYPHNGQTISLIDGEINTFWHSKWQGGEVAPPYEIILDMGKENSVSQLGLIARQNALTSMNLEIYAGDDGETWNLIGKYFFDGSIKTEQMVPVKACDARWIRIYIPTLGSGSSVGHLAEIYVYGTDK
# Key:
# Test in all cases: glycan array binding signal (z-score within array); higher = stronger binding
# Details in all cases: glycan notation: IUPAC condensed, linker removed
# Neu5Ac(a2-8)Neu5Ac = molecular target: Neu5Ac(a2-8)Neu5Ac
# Outline: (§1)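 Glycan array binding is given as a within-array Z-score, which can be read as non-binding when negative. The arrays, 3228 of them, came from the Consortium for Functional Glycomics database and were retained only where the protein sequence was available. Z-scores were averaged across arrays of the same protein sequence at different concentrations or buffers and across linkers.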
# [1] = molecular target: Neu5Ac(a2-8)Neu5Ac(a2-3)Gal(b1-3)GalNAc(b1-4)[Neu5Ac(a2-3)]Gal(b1-4)Glc
# Outline: as §1
# [2] = molecular target: Neu5Ac(a2-8)Neu5Ac(a2-3)Gal(b1-3)GalNAc(b1-4)[Neu5Ac(a2-8)Neu5Ac(a2-3)]Gal(b1-4)Glc
# Outline: as §1
# [3] = molecular target: Neu5Ac(a2-8)Neu5Ac(a2-3)Gal(b1-4)Glc
# Outline: as §1
# [4] = molecular target: Neu5Ac(a2-8)Neu5Ac(a2-3)Gal(b1-4)GlcNAc
# Outline: as §1
# [5] = molecular target: Neu5Ac(a2-8)Neu5Ac(a2-3)[Gal(b1-3)GalNAc(b1-4)]Gal(b1-4)Glc
# Outline: as §1
# [6] = molecular target: Neu5Ac(a2-8)Neu5Ac(a2-3)[GalNAc(b1-4)]Gal(b1-4)Glc
# Outline: as §1
# [7] = molecular target: Neu5Ac(a2-8)Neu5Ac(a2-8)Neu5Ac
# Outline: as §1
# [8] = molecular target: Neu5Ac(a2-8)Neu5Ac(a2-8)Neu5Ac(a2-3)Gal(b1-4)Glc
# Outline: as §1
# [9] = molecular target: Neu5Ac(a2-8)Neu5Ac(a2-8)Neu5Ac(a2-3)[Gal(b1-3)GalNAc(b1-4)]Gal(b1-4)Glc
# Outline: as §1
# [10] = molecular target: Neu5Ac(a2-8)Neu5Ac(a2-8)Neu5Ac(a2-3)[GalNAc(b1-4)]Gal(b1-4)Glc
# Outline: as §1
# [11] = molecular target: Neu5Ac(a2-8)Neu5Ac(a2-8)Neu5Ac(a2-8)Neu5Ac(a2-3)[GalNAc(b1-4)]Gal(b1-4)Glc
# Outline: as §1
# [12] = molecular target: Neu5Ac(a2-8)Neu5Gc(a2-3)Gal(b1-4)GlcNAc
# Outline: as §1
# [13] = molecular target: Neu5Ac(b2-6)Gal(b1-4)GlcNAc
# Outline: as §1
# Neu5Ac(b2-6)GalNAc = molecular target: Neu5Ac(b2-6)GalNAc
# Outline: as §1
# [14] = molecular target: Neu5Ac9Ac(a2-3)Gal(b1-3)GlcNAc
# Outline: as §1
# [15] = molecular target: Neu5Ac9Ac(a2-3)Gal(b1-4)GlcNAc
# Outline: as §1
# [16] = molecular target: Neu5Ac9Ac(a2-6)Gal(b1-4)GlcNAc
# Outline: as §1
# [17] = molecular target: Neu5Gc(a2-3)Gal(b1-3)GlcNAc
# Outline: as §1
# [18] = molecular target: Neu5Gc(a2-3)Gal(b1-3)[Fuc(a1-4)]GlcNAc
# Outline: as §1
# Neu5Gc(a2-3)Gal(b1-4)Glc = molecular target: Neu5Gc(a2-3)Gal(b1-4)Glc
# Outline: as §1
# [19] = molecular target: Neu5Gc(a2-3)Gal(b1-4)GlcNAc
# Outline: as §1
# [20] = molecular target: Neu5Gc(a2-3)Gal(b1-4)GlcNAc(b1-3)Gal(b1-4)GlcNAc(b1-2)Man(a1-3)[Neu5Gc(a2-3)Gal(b1-4)GlcNAc(b1-3)Gal(b1-4)GlcNAc(b1-2)Man(a1-6)]Man(b1-4)GlcNAc(b1-4)GlcNAc
# Outline: as §1
# [21] = molecular target: Neu5Gc(a2-3)Gal(b1-4)[Fuc(a1-3)]GlcNAc
# Outline: as §1
# [22] = molecular target: Neu5Gc(a2-6)Gal(b1-4)GlcNAc
# Outline: as §1
# Neu5Gc(a2-6)GalNAc = molecular target: Neu5Gc(a2-6)GalNAc
# Outline: as §1
# [23] = molecular target: Neu5Gc(a2-8)Neu5Ac(a2-3)Gal(b1-4)GlcNAc
# Outline: as §1
# [24] = molecular target: Neu5Gc(a2-8)Neu5Gc(a2-3)Gal(b1-4)GlcNAc
# Outline: as §1
# [25] = molecular target: Neu5Gc(a2-8)Neu5Gc(a2-3)Gal(b1-4)GlcNAc(b1-3)Gal(b1-4)GlcNAc
# Outline: as §1
# [26] = molecular target: Neu5Gc(a2-8)Neu5Gc(a2-6)Gal(b1-4)GlcNAc
# Outline: as §1
# [27] = molecular target: Neu5Gc(b2-6)Gal(b1-4)GlcNAc
# Outline: as §1
binder,measurement,setting,value
B1,glycan array binding signal (z-score),Neu5Ac(a2-8)Neu5Ac,0.669
same,glycan array binding signal (z-score),[1],-0.012
same,glycan array binding signal (z-score),[2],0.441
same,glycan array binding signal (z-score),[3],-1.14
same,glycan array binding signal (z-score),[4],0.986
same,glycan array binding signal (z-score),[5],0.433
same,glycan array binding signal (z-score),[6],-0.39
same,glycan array binding signal (z-score),[7],-0.263
same,glycan array binding signal (z-score),[8],1.11
same,glycan array binding signal (z-score),[9],-0.348
same,glycan array binding signal (z-score),[10],1.67
same,glycan array binding signal (z-score),[11],-0.825
same,glycan array binding signal (z-score),[12],-0.892
same,glycan array binding signal (z-score),[13],1.42
same,glycan array binding signal (z-score),Neu5Ac(b2-6)GalNAc,-0.312
same,glycan array binding signal (z-score),[14],1.43
same,glycan array binding signal (z-score),[15],0.182
same,glycan array binding signal (z-score),[16],0.072
same,glycan array binding signal (z-score),[17],1.12
same,glycan array binding signal (z-score),[18],-1.07
same,glycan array binding signal (z-score),Neu5Gc(a2-3)Gal(b1-4)Glc,-0.572
same,glycan array binding signal (z-score),[19],0.081
same,glycan array binding signal (z-score),[20],2.02
same,glycan array binding signal (z-score),[21],-0.713
same,glycan array binding signal (z-score),[22],-0.708
same,glycan array binding signal (z-score),Neu5Gc(a2-6)GalNAc,0.665
same,glycan array binding signal (z-score),[23],-1.36
same,glycan array binding signal (z-score),[24],-0.011
same,glycan array binding signal (z-score),[25],-0.321
same,glycan array binding signal (z-score),[26],1.03
same,glycan array binding signal (z-score),[27],-0.599

# 2 entries from above, with bars between the fields.
binder | measurement | setting | value
B1 | glycan array binding signal (z-score) | [16] | 0.072
same | glycan array binding signal (z-score) | [17] | 1.12
